Results taken from US20240287134A1, “PEPTIDES FOR USE AS SENOTHERAPEUTIC AGENTS” (FUNDACIÓN PROFESOR NOVOA SANTOS, priority 2019, published 2024).

System: chondrocytes
Experiment: Visualization of peptide internalization (TMR fluorescence)
Format: cell-based, human
Conditions: 16 hours, fluorescence microscopy

Substance: Nt-FKGVKDRVKGK-Ct (TMR label) [TUB1, TMR-labelled]
- subcellular location of TMR-labelled peptide: located mainly at the cytoplasmic level

Substance: Nt-GKSDPYHATSGALSPAKD-Ct (N-terminal TMR label) [YSA1, residues 242-259 of the C-terminal domain of Cx43; labelled at N-terminus with TMR fluorophore]
- subcellular location of TMR-labelled peptide: located mainly at the cytoplasmic level
